Measured values published in PubChem BioAssay AID1671190 (National Center for Advancing Translational Sciences (NCATS), 2021).
In all, about 580,000 compounds went through this assay and about 6,100 (1.1%) were called active. The shares of active, inactive and inconclusive entries below differ from those in the screen. Calls come from the whole dose curve; as a rule, active = well fitted inhibition curve with a large enough effect; inconclusive = small, poorly fitted or top-dose-only effect, or another doubt; inactive = no such curve, though single readings can be large or run the other way. Potencies of inconclusive entries are doubtful fits and often do not repeat.

Sequences of proteins named here, by UniProt entry; tags and fusion partners are left off.
UniProt P18054, whole entry, looked up: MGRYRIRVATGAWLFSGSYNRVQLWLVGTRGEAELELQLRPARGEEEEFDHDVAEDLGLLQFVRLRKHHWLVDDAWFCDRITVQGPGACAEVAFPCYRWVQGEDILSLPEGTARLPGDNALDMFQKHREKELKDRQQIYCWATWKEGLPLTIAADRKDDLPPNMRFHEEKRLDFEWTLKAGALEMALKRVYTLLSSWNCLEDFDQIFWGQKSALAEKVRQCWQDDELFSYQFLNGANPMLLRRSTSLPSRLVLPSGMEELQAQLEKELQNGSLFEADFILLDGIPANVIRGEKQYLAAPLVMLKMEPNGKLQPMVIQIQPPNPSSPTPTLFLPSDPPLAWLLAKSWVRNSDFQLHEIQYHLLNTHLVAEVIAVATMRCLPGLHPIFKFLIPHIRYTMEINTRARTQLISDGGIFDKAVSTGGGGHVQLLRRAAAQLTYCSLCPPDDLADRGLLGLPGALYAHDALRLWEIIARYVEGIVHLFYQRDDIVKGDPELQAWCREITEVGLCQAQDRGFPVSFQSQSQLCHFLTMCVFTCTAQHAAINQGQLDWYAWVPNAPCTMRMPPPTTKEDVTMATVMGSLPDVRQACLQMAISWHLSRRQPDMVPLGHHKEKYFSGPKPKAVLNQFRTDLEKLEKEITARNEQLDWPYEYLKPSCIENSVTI

Molecular target: Polyunsaturated fatty acid lipoxygenase ALOX12 (Homo sapiens) (UniProt P18054)
Assay: Primary qHTS assay for inhibitors of human arachidonate 12S-lipoxygenase (ALOX12): Round 2
Conditions: purified 12hLO, xylenol orange hydroperoxide absorbance; activity change, negative = inhibition: at 108 µM (top of the series) unless noted
How it was run: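 Hydroperoxide product was detected by ferrous iron/xylenol orange as the 573 to 405 nm absorbance ratio. Arachidonic acid at 40 uM (final) was turned over for 30 min at room temperature by 150 nM human 12hLO, pH 7.0 Hepes buffer, after 15 min compound preincubation.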
% is set by controls: 0 for no effect and ±100 for the full control effect; potency is the fitted concentration of half-maximal effect.

Structure (SMILES)	Potency	activity change, negative = inhibition
CC(C)c1ccc2oc(-c3ccc(NC(=O)c4ccc([N+](=O)[O-])o4)cc3)nc2c1	inconclusive: 50.1 µM [inhibitor, partial curve, poor fit]	
CC(C)(C)c1ccc(OCCNC(=S)NC(=O)c2cccnc2)cc1	inactive	
Oc1[nH]c2ccccc2c1N=Nc1nncc2ccccc12	inactive	
COC(=O)c1ccc(NC(=O)CC2C(=O)N(c3ccccc3)C(=O)N2C2CCCC2)cc1 (centres undefined)	inconclusive: 28.2 µM [inhibitor, full curve, poor fit]	
Cc1ccc(C2(CCNS(=O)(=O)c3ccc(C)cc3)CCOC(C(C)C)C2)cc1 (centres undefined)	inactive	
CC1CCC(C(C)C)C2=C1C(C#N)(C#N)C(C#N)(C#N)C(c1ccccc1)N2 (centres undefined)	active: 39.8 µM	
COc1cc(C(=O)N2CCC(c3ccncc3)CC2)cc(OC)c1OC	inconclusive: 112 µM [inhibitor, single point]	
CNC(=S)N(Cc1ccco1)Cc1cc2cc3c(cc2[nH]c1=O)OCCO3	inactive	
COc1ccc(Cn2c(C(=O)O)c(CNC3CCC(C)CC3)c3ccc(C)cc32)cc1 (centres undefined)	inconclusive: 126 µM [inhibitor, partial curve, poor fit]	
Cc1ccc(C)c(NC(=O)CCCc2ccccc2)c1	inactive	
CCOc1nc(NC2CCCC2)nc(N2CCC(C)CC2)n1	inactive	
O=C(O)CNC(=O)Cn1nc2c(cc1=O)CCCCC2	inactive	
CCN1CCN(CC(=O)Nc2ccc(C)c(Br)c2)CC1	inconclusive: 10 µM [inhibitor, full curve, poor fit]	
CN=c1scc(-c2cccs2)n1/N=C/c1ccccc1O	inactive	
CCOC(=O)c1nc2ccccc2nc1NCc1cccc(OC)c1	inconclusive: 224 µM [inhibitor, partial curve, poor fit]	
O=C(CSc1ccccn1)c1ccc2c(c1)OCO2	inconclusive: 44.7 µM [inhibitor, partial curve]	
COc1ccc(S(=O)(=O)N[C@H]2C[C@@H](c3nc(-c4ccc(OC(F)(F)F)cc4)no3)N(C)C2)cc1	inconclusive: 4.47 µM [inhibitor, full curve]	
CCc1ccc2[nH]c(C(C)(C)C)c(C=O)c2c1	inactive	
COC[C@H]1CCCN1[C@H]1CS(=O)(=O)N[C@@H]1COCc1ccccc1	inconclusive: 141 µM [inhibitor, single point]	
Cc1ccccc1C(=O)NC(=S)N(C)CCc1ccccn1	inconclusive: 20 µM [inhibitor, partial curve, poor fit]	
CCCNC(=S)N1CCN(CC)CC1	inconclusive: 1.26 µM [inhibitor, full curve, poor fit]	
CSCC[C@H](NC(=O)N1CCn2c1nc1ccccc12)C(=O)NCc1ccco1	inactive	
O=[S+]1([O-])NC2(CCCN(Cc3c(F)cccc3Cl)C2)COc2ccccc21 (centres undefined)	inconclusive: 89.1 µM [inhibitor, partial curve, poor fit]	

Structure (SMILES)	Potency	activity change, negative = inhibition
O=C1CC2(CCN(C(=O)c3c(F)cccc3Cl)CC2)Oc2ccccc21	inconclusive: 14.1 µM [inhibitor, full curve, poor fit]	
C=CCn1c(SC/C=C/C)nc2c1c(=O)n(C)c(=O)n2C	inconclusive: 79.4 µM [inhibitor, single point]	
CN(C(=O)COC(=O)c1ccc(F)cc1)c1ccccc1	inactive	
O=C(Cc1ccccc1F)NC1CC2CC1C1CCCC21 (centres undefined)	inactive	
COC(=O)c1ccccc1NC(=S)N(Cc1ccc2c(c1)OCO2)Cc1cc2ccc(OC)cc2[nH]c1=O	inconclusive: 158 µM [inhibitor, partial curve, poor fit]	
COc1cccc(NC(=O)c2cnc3c(c2)N([S+](=O)([O-])c2cccnc2)CCC3)c1	inactive	
Cc1cccc(C)c1NC(=O)CSCC(=O)c1ccc(O)c(O)c1	inconclusive: 1.78 µM [inhibitor, full curve, poor fit]	
COC(=O)Cn1c2[n+](c3ccccc31)CC(O)CS2 (centres undefined)	inconclusive: 12.6 µM [inhibitor, partial curve, poor fit]	
COc1ccccc1-c1cc(Nc2ccc(N3CCOCC3)cc2)c2onc(C)c2n1	inactive	
CCCOc1ccc(C(=O)Nc2ccc(NC(=O)c3cccc(Cl)c3)cc2)cc1	inconclusive: 44.7 µM [inhibitor, partial curve, poor fit]	
COc1ccc(S(=O)(=O)N2CCN(C(=O)NCc3ccccc3)CC2)cc1	inconclusive: 15.8 µM [inhibitor, partial curve, poor fit]	
O=C(/C=C/c1ccccc1Cl)Nc1ccncc1	inconclusive: 35.5 µM [inhibitor, partial curve, poor fit]	
O=c1[nH]c2ccccc2n1C1CCN(CCOc2ccccc2)CC1	inconclusive: 31.6 µM [inhibitor, partial curve, poor fit]	
COc1ccc(S(=O)(=O)N2CCC(CN3C(=O)c4cccc5cccc(c45)C3=O)CC2)cc1	inactive	
COc1ccccc1C(=O)N1CCN(c2oc(-c3ccccc3)nc2C#N)CC1	inactive	
CC1CN(C(=O)CSc2nnc(C3CCCCC3)n2N)CC(C)O1 (centres undefined)	inconclusive: 112 µM [inhibitor, partial curve, poor fit]	
O=C(CN(c1ccccn1)S(=O)(=O)c1ccccc1)N/N=C/c1cccc([N+](=O)[O-])c1	inconclusive: 50.1 µM [inhibitor, partial curve, poor fit]	
COc1ccc(NC(=O)c2c(NCc3cccc(OC)c3)sc3c2CCC3)cc1	inconclusive: 50.1 µM [inhibitor, partial curve, poor fit]	
CN(C)C(=O)c1cn(-c2ccccc2)nc1-c1cc2ccccc2oc1=O	inconclusive: 35.5 µM [inhibitor, single point]	
COc1ccc(C(=O)c2nc3c(n2O)CCCCC3)cc1	inconclusive: 3.16 µM [inhibitor, full curve, poor fit]	
CCc1[nH]nc2c1C1(CCN(C(=O)OCc3ccccc3)CC1)C(C#N)=C(N)O2	inconclusive: 141 µM [inhibitor, partial curve, poor fit]	
O=C(Nc1ccccc1)O[C@@H]1CO[C@H]2[C@@H]1OC[C@@H]2n1nnnc1SCc1ccco1	inactive	
Cc1ccc(N=C2SC(C(=O)Nc3ccc(OC(F)(F)F)cc3)C(N)=C2C(=O)Nc2c(C)cc(C)cc2C)cc1 (centres undefined)	inconclusive: 70.8 µM [inhibitor, partial curve, poor fit]	

Four consecutive compounds already listed:
Structure (SMILES)	Potency	activity change, negative = inhibition
COc1ccc(S(=O)(=O)N2CCC(CN3C(=O)c4cccc5cccc(c45)C3=O)CC2)cc1	inactive	
COc1ccccc1C(=O)N1CCN(c2oc(-c3ccccc3)nc2C#N)CC1	inactive	
CC1CN(C(=O)CSc2nnc(C3CCCCC3)n2N)CC(C)O1 (centres undefined)	inconclusive: 112 µM [inhibitor, partial curve, poor fit]	
O=C(CN(c1ccccn1)S(=O)(=O)c1ccccc1)N/N=C/c1cccc([N+](=O)[O-])c1	inconclusive: 50.1 µM [inhibitor, partial curve, poor fit]	

More entries.

Structure (SMILES)	Potency	activity change, negative = inhibition
CC(C)C1C(C#N)=C(N)Oc2n[nH]c(-c3cccs3)c21 (centres undefined)	inconclusive: 44.7 µM [inhibitor, single point]	
CC(=O)Nc1sc(N/N=C/c2ccc(N(C)C)cc2)nc1-c1ccc(C)cc1	inconclusive: 11.2 µM [inhibitor, partial curve, poor fit]	
CCCN1C(=O)C(CC(=O)N2CCCC2)Sc2ncccc21 (centres undefined)	inactive	
CN(C)c1ccc(-c2nc(-c3ccncc3)no2)cc1[N+](=O)[O-]	inconclusive: 126 µM [inhibitor, partial curve, poor fit]	
COc1cc(/C=N/N=C(/C(=O)c2ccccc2)c2ccccc2)cc(OC)c1O	inconclusive: 112 µM [inhibitor, partial curve, poor fit]	
Cc1ccc2c(CN(C)CCOc3ccccc3F)cc(=O)oc2c1C	inactive	
CCc1nc2oc3cc(OC)ccc3c(=O)c2c(=O)n1-c1ccccc1	inconclusive: 50.1 µM [inhibitor, partial curve, poor fit]	
N#Cc1cccc(-c2nc(Nc3ccncc3)c3ccccc3n2)c1	inconclusive: 2.51 µM [inhibitor, full curve, poor fit]	
COC(=O)CC/C(O)=C1\C(=O)CC(C)(C)CC1=NCCc1nc2ccccc2[nH]1	inactive	
Cc1ccc(NC(=O)Cn2c(-c3ccccc3)nc(C)cc2=O)c(C)c1	inactive	
C/C(=N/NC(=O)c1ccc2c(c1)OCO2)c1ccc(Br)s1	inactive	
CCc1ccc(S(=O)(=O)N/N=C\c2ccc3c(c2)OCO3)cc1	inconclusive: 89.1 µM [inhibitor, partial curve, poor fit]	
O=C(O)[C@@H]1CCCC[C@@H]1C(=O)N1CCOCC1	inactive	
CCOc1ccc(/C=N/n2c(SC)nnc(C(C)(C)C)c2=O)cc1	inactive	
COc1ccc(Cl)cc1NC(=O)c1cc(-c2ccc[nH]2)n[nH]1	inconclusive: 14.1 µM [inhibitor, full curve]	
COC(=O)[C@@]12C[C@@H](CC(=O)N3CCCC3)C(=O)N(CCc3ccc(OC)c(OC)c3)C1=CCC(C)(C)C2	inactive	
CCCCN(C(=O)c1c(C)noc1C)c1c(N)n(CCC)c(=O)[nH]c1=O	inconclusive: 2.24 µM [inhibitor, full curve, poor fit]	
Cc1nc2sc3c(c2c2nc(C(=O)NCc4ccco4)nn12)CC(C)(C)OC3	inconclusive: 50.1 µM [inhibitor, single point]	
Cc1[nH]n2c(=O)c(C#N)c(-c3ccccc3)nc2c1-c1ccccc1	inactive	
COc1ccc(Cl)cc1-c1nc(N)nc(NC2CCCCC2)n1	inactive	
CCc1nnc(NC(=O)CSc2nnc(-c3cccnc3)n2CC)s1		inconclusive: -34% [inhibitor]
CCOc1ccc(NC(=O)CSc2nc3nc(C)c(Cc4ccccc4)c(C)n3n2)cc1	inconclusive: 50.1 µM [inhibitor, partial curve, poor fit]	
COC(=O)C1=C(C)n2cnnc2NC1c1ccc(Cl)cc1 (centres undefined)	inactive	
